Test system: activated sludge (microbial inoculum)
Experiment: Aerobic biodegradability in water containing mineral salts and activated sludge (CO2 evolution, DOC)
Description: A maleinized ester derivative in the form of hydrogenated 1-pentyl triester of maleinated-9-dodecene methyl ester (hereinafter the “test substance”) is evaluated for aerobic biodegradability in water containing mineral salts and activated sludge. The activated sludge is taken from a wastewater treatment plant and is used as a source of microbial inoculum. The objectives of the study are: 1) to evaluate the biodegradability (mineralization to CO2 production) potential of the test substance in an aerobic, aqueous medium; and 2) to determine the mineralization potential of a reference chemical in order to assess the viability of the test inoculum.
Approximately one liter of activated sludge is used as the microbial inoculum. The sludge is collected from the Columbia Wastewater Plant in Columbia, Miss. This plant treats predominately domestic sewage.
An aqueous mineral salts medium provides essential mineral nutrients and trace elements necessary to sustain the inoculum throughout the test period. The mineral salts medium is prepared by addition of reagent grade salts to reagent water. The mineral salts include salts of K, Na, NHa, Ca, Mg and Fe. The pH of the mineral salts medium is 7.27.
Each test system consists of a 5-L Pyrex carboy (reaction flask or vessel) containing a 3.0 L test solution volume comprised of mineral salts medium, prepared microbial inoculum, reagent water, and the appropriate test and/or reference substance additions. Outside air is passed through a pre-trap containing 500 mL of approximately 5 N KOH. The air is then passed through approximately 500 mL of reagent water to humidify the air, as well as to prevent contamination of the flasks from the KOH pre-trap. The CO2-free and humidified air is then passed through the reaction flasks.
The CO2-free air is introduced into each flask by positive pressure, and the flow rates (50-100 mL/minute) are measured and adjusted using flow meters. The outlet from each flask is connected to three CO2 absorber gas-washing traps in series, each filled with 100 mL of 0.2 N KOH solution. These traps capture the CO2 evolved from the reaction flasks. A magnetic stir bar is placed in each flask. The flasks are placed on insulated magnetic stir plates and stirred throughout the duration of the study. The test systems are kept in the dark (except for sampling and maintenance) in a temperature-controlled environmental chamber set at 22° C. Temperature of the chamber is continuously measured using a Rees Scientific temperature monitoring system.
The activated sludge is homogenized in a blender at a medium speed for two minutes. The homogenized sludge is allowed to settle for 30 to 60 minutes then filtered through glass wool. A volume of 30 mL of the filtrate is used as the inoculum for each reaction flask.
One day prior to dosing, six test systems are assembled. Each 5-L carboy receives 2,400 mL of mineral salts medium and 30 mL of the prepared activated sludge. Stirring and aeration with CO2-free air at approximately 90 mL/minute is started for each flask. The flasks are allowed to aerate overnight to purge the systems of CO2 before initiation of the test (dosing on Day 0).
Duplicate test substance systems are prepared by adding 570 mL of reagent water and approximately 42.2 mg (dosed gravimetrically) of the test substance to two of the 5-L carboys. The nominal concentration of carbon from the test substance in the final volume of 3,000 mL of solution is 10 mg C/L. […]

## O=C([O-])c1ccccc1.[Na+] [reference substance, sodium benzoate, reference compound]
Day 0
  corrected DOC concentration at study initiation: 21.0 mg C/L
Day 0 to Day 28
  DOC removal: 100%
Day 9, single system
  % ThCO2: 67.2%
Day 28
  corrected DOC concentration at termination: 0.00 mg C/L
Through Day 29, single system
  % ThCO2: 73.7%

From patent US9464255B2, “Maleinized ester derivatives” (Elevance Renewable Sciences, Inc., priority 2013, dated 2016)
